According to PubChem BioAssay AID1259415 (National Center for Advancing Translational Sciences (NCATS), 2018):
“And” between values parts separate entries of the source, which are not always exact repeats. Equal entries are not always repeated. Out of some 410,000 compounds screened, about 18,000 (4.4%) were called active. Inconclusive means that the source gave no clear call. Such entries were picked first, then a sample of the others. No stated cut-off is given here; in the data, active means activity change below about -60%; inconclusive means no clear call, values can overlap the other calls; inactive means above about -39%.

assay: qHTS Assay for inhibitors of the human cytomegalovirus (HCMV); conditions: HFF cells, HCMV-luciferase reporter, 72 h; at 57.5 µM; hits give low values
How it was run: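 Two-dose cell screen: HFF monolayers treated with compounds and infected with luciferase-expressing HCMV at 1 PFU/cell, 72 h at 37C, then lysed for luciferase measurement.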
On the % scale 0 is the no-effect control and ±100 the full control effect.

Row | SMILES | activity change, negative = inhibition
1 | Cc1ccc(C)c(Nc2nc3c(S(=O)(=O)c4ccc(Br)cc4)nnn3c3ccsc23)c1 | active: -95.1%
2 | CCC(CO)n1c(=S)[nH]c2cc(OC)c(OC)cc2c1=O (stereo not given) | inconclusive: -44.4%
3 | O=C1NC(=O)C2(CCCc3ccc(N(CCCl)CCCl)cc32)N1 (stereo not given) | active: -80.6%
4 | O=S(=O)(Nc1ncccn1)c1ccc(NC(=S)Nc2ccc(Cl)cc2)cc1 | active: -63.8%
5 | CCN1CCN(c2c(S(=O)(=O)c3ccc(Cl)cc3)cnc3ccccc23)CC1 | inconclusive: -42.7%
6 | CCN(CC)CCSc1nnc2c3cc(C)ccc3n(Cc3ccccc3)c2n1 | active: -84.7%
7 | COc1ccc(C2=NC3(CCCCCC3)N(CC(=O)Nc3cccc(Cl)c3)C2=O)cc1 | active: -90.6%
8 | CCn1cc(C(=O)NCC(OC)OC)c(=O)c2cc(S(=O)(=O)N3CCOCC3)ccc21 | inconclusive: -43.2%
9 | COc1cccc(CNC(=O)CN2CCCN(Cc3ccccc3)S2(=O)=O)c1 | inactive: -4.31%
10 | COc1ccc(CNC(=O)C23CC4CC(CC(Br)(C4)C2)C3)cc1 | inconclusive: -55.3%
11 | COc1ccc(-c2nnc(-c3ccc(Br)o3)o2)cc1OC | active: -107%
12 | Cc1ccc(S(=O)(=O)NC(=O)C2(C)CCN2C(=O)CC2CCCCC2)nc1 (stereo not given) | inactive: -28.9%
13 | NC(=O)NC(=O)COC(=O)c1ccc(Cl)c(S(=O)(=O)N(Cc2ccccc2)c2ccc(Cl)cc2)c1 | inconclusive: -48.4%
14 | COc1ccc(N2CC(C(=O)Nc3ccc(S(=O)(=O)N4CCOCC4)cc3)CC2=O)cc1 (stereo not given) | inconclusive: -56.9%
15 | COc1ccccc1-c1ccc([C@@H]2C[C@H]3[C@H](CON3C)CN2S(=O)(=O)c2cc(Cl)cc(Cl)c2)cc1 | inactive: 8.41%
16 | C#CCNC(=O)C1=C[C@@H](C2CCCCC2)C[C@@H](OCc2ccc(CO)cc2)O1 | inactive: 7.19%
17 | Cc1cccc(NS(=O)(=O)c2cc(C(=O)NCCC3=CCCCC3)ccc2Cl)c1 | inconclusive: -53.6%
18 | CCCNc1nc2c(c(=O)n(C)c(=O)n2C)n1CCC(C)C | inconclusive: -46.8%
19 | COc1cc2[nH]c(=O)c(C(=O)NCc3ccc(C)cc3)c(O)c2cc1OC | inconclusive: -47.2%
20 | CNC(=S)NCCc1ccccc1 | inactive: 9.04%
21 | Nc1ccc(C(=O)n2c3ccccc3c3ccccc32)cc1 | active: -79.1%
22 | COc1ccc(OC)c(-c2csc(N(CC3CCCO3)C(=O)Cc3ccccc3)n2)c1 (stereo not given) | inconclusive: -40.2%

Row | SMILES | activity change, negative = inhibition
23 | COC(=O)c1ccc(CN2C(=O)c3ccccc3S2(=O)=O)cc1 | inactive: 64.4%
24 | Cc1ccc(-c2csc(/C(C#N)=C(\O)CCl)n2)cc1 | inactive: 12.5%
25 | N=c1c(S(=O)(=O)c2ccc(Cl)cc2)cc2c(=O)n3ccccc3nc2n1CCc1ccccc1 | inconclusive: -59.6%
26 | CNC(=O)C[C@H]1C(=O)N(CCc2ccccc2)C[C@@H]1Cc1ccccc1 | inactive: 1.03%
27 | COc1ccc(S(=O)(=O)Nc2cc3c(C(C)=O)c(C)oc3c3ccccc23)cc1 | active: -76%
28 | COc1cccc(/C=N/NC(=O)CSc2cccc3cccnc23)c1 | active: -91.6%
29 | Cc1ncsc1CCOC(=O)c1ccc(N2CCOCC2)c([N+](=O)[O-])c1 | active: -61.1%
30 | CCOC(=O)c1c(C)nc(C)c(C(=O)OCC)c1-c1ccc(Br)cc1 | inconclusive: -48.6%
31 | Cc1ccccc1NC(=O)CSCc1nc(N)nc(Nc2ccccc2C)n1 | inactive: -30.8%
32 | CCOC(=O)c1cccn1C1C(=O)N(Cc2ccc(OC)cc2)c2c(F)cccc21 (stereo not given) | inactive: -32%
33 | COCCNC(=O)c1ccc2c(c1)CCN2S(C)(=O)=O | active: -61.8%
34 | O=C1C(Cc2ccccc2)Nc2ncnc(N3CCN(c4ccccc4)CC3)c2N1Cc1ccccc1 (stereo not given) | inconclusive: -53.3%
35 | Cc1ccccc1Nc1c(-c2cccnc2)nc2cccc(C)n12 | inconclusive: -46.1%
36 | COC(=O)c1ccc(NC(=O)c2c(Br)cnn2C)cc1 | inconclusive: -47.8%
37 | CCN(CC)C(=O)CSc1nc(C)cc(C)n1 | inconclusive: -51.8%
38 | CC(OC(=O)c1ccc2c(c1)OCO2)C(=O)NC1CCCCC1C (stereo not given) | inconclusive: -44.1%
39 | COc1ccc(-c2nc(CCNC(=O)c3c(F)cccc3Cl)cs2)cc1 | inconclusive: -46.3%
40 | O=C(O)COc1ccccc1/C=N/NC(=O)/C(=C\c1ccc2c(c1)OCO2)NC(=O)c1ccccc1 | inconclusive: -47.5%
41 | CCOc1cc(C(=O)NCCCn2ccnc2)cc(OCC)c1OCC | inconclusive: -40.9%
42 | CCC1(C)Cc2c(sc3nc(SC)nc(NCCN(C)C)c23)CO1 (stereo not given) | active: -108%
43 | CCOc1ccccc1NC(=O)C(OC(=O)c1ccccc1NS(=O)(=O)c1cccs1)c1ccccc1 (stereo not given) | inconclusive: -45.4%
44 | CCn1c2ccccc2c2cc(NC(=O)c3cc(C)on3)ccc21 | inactive: -31.9%

Row | SMILES | activity change, negative = inhibition
45 | Cc1ccc(Nc2c([N+](=O)[O-])ccc3nonc23)c(C)c1 | inconclusive: -51.1%
46 | C=CCOc1c(Br)cc(CNc2ccc3[nH]c(=O)[nH]c3c2)cc1OCC | inconclusive: -45.9%
47 | COc1cc2c(cc1OC)C(COc1ccc(F)cc1)NCC2 (stereo not given) | inconclusive: -55.3%
48 | Cn1nccc1C(=O)Nc1ccn(C23CC4CC(CC(C4)C2)C3)n1 | active: -81.3%
49 | O=C(CC1C(=O)NCCN1Cc1cccc(Oc2ccccc2)c1)NCCn1cccn1 (stereo not given) | inconclusive: -40.3%
50 | Clc1ccc(N=NN2CCOCC2)cc1 | inactive: 6.55%
51 | COc1ccc(NC(=O)c2cc3nc(-c4ccccc4)cc(C)n3n2)cc1OC | inconclusive: -44.2%
52 | C/C(=N\Nc1nc(C)cc(-c2ccccc2)n1)c1ccccc1 | inconclusive: -59.3%
53 | O=C(NCC1CCCO1)c1ccc2c(c1)N(Cc1ccc(F)cc1Cl)C(=O)CS2 (stereo not given) | inconclusive: 0%
54 | COc1ccc(-c2cc(-c3c(O)c(OC)c4occc4c3OC)[nH]n2)cc1OC | inactive: 20.4%
55 | CN(C)c1cccc(C(=O)NCc2ccc(Cl)cc2)c1 | inactive: -26%
56 | CCSc1nc2c([nH]c3ccccc32)c(=O)n1-c1cccc(OC)c1 | active: -63.2%
57 | COc1ccc(CCn2c(=N)c(S(=O)(=O)c3ccc(C)cc3)cc3c(=O)n4ccccc4nc32)cc1 | inconclusive: -51.8%
58 | CCn1c(C)nc2cc(C(=O)NNC(=S)Nc3ccc(OC)cc3)ccc21 | inconclusive: -43.2%
59 | Cc1ccc(NC(=O)C2CCN(c3nc4ccccc4nc3C(F)(F)F)CC2)cc1C | inactive: 1.3%
60 | CCn1c2ccccc2c2nnc(N3CCN(c4ccc(OC)cc4)CC3)nc21 | inconclusive: -42.5%
61 | COc1ccc(-c2cc(C(F)(F)F)nc(SCCC(=O)Nc3ccc(O)cc3)n2)cc1 | inconclusive: -43.2%
62 | CC[C@]12c3[nH]c4cc(-c5ccco5)ccc4c3CCN1C(=O)[C@@H](CC(=O)NC(C)(C)C)C[C@@H]2C(=O)N1CCN(C(=O)c2ccco2)CC1 | inactive: -6.73%
63 | CCc1ccc(OCC(=O)Nc2ccc(N3CCN(S(C)(=O)=O)CC3)cc2)cc1 | inconclusive: -50.6%
64 | O=C1/C(=C\c2ccc(Br)o2)Cc2ccccc21 | inconclusive: -59%
65 | O=C(COC(=O)CCN1C(=O)c2ccccc2C1=O)Nc1ccccc1[N+](=O)[O-] | inconclusive: 0%
66 | CCCn1c(N)c(N(CCOC)C(=O)c2ccc(S(=O)(=O)N3CCOCC3)cc2)c(=O)[nH]c1=O | inactive: -17%

Row | SMILES | activity change, negative = inhibition
67 | Cc1ccc(S(=O)(=O)C2(C(=O)Nc3ccc(C(C)C)cc3)CC2)cc1 | inactive: 38.6% and inactive: 6.84%
68 | COc1ccc(Cl)cc1NC(=O)CN(C)CC(=O)N1CC(=O)Nc2ccccc21 | inconclusive: -52%
69 | COC1CCN(C(=O)c2cc(COc3ccc(-n4cncn4)cc3)on2)CC1 | inactive: 3.63%
70 | O=C(NCCN1CCCC1)c1ccc(Cl)cc1 | inconclusive: -43.6%
71 | O=C(Cn1nc(-c2ccc(Cl)cc2)ccc1=O)NCCCN1CCN(Cc2ccccc2)CC1 | inconclusive: -42.9%
72 | Cc1cc(C)cc(-n2c(C)cc(/C=C3\C(=N)N4N=C(CC(C)C)SC4=NC3=O)c2C)c1 | inconclusive: -54.3%
73 | CCOc1ccccc1CN1C(=O)c2ccccc2C1C(=O)NC(C)CC (stereo not given) | inactive: -2.86%
74 | CCOc1ccc(N=C2NC(=O)S/C2=C\c2ccc(Cl)cc2)cc1 | inconclusive: -40.9%
75 | CC(C)c1ccc(NC(=O)C2Cc3ccccc3N2C(=O)c2ccccc2)cc1 (stereo not given) | inconclusive: -45.5%
76 | COc1ccc(CNc2nc(-c3ccc(Cl)cc3)nn2C(=O)c2ccccc2)cc1 | inactive: 1.03%
77 | Cc1ccc2nc(SCC(=O)NCc3ccc(F)cc3)[nH]c2c1 | active: -64.6%
78 | COc1ccccc1Nc1c2c(nc3ccc(NC(=O)/C=C/c4cc(OC)c(OC)c(OC)c4)cc13)CCCC2 | active: -98.3%
79 | CCCCCc1ccc(-c2ccc(C(=O)Oc3ccc(C(=O)OC)cc3)cc2)nc1 | inactive: 16.6%
80 | Cc1ccc(S(=O)(=O)c2nnn3c2nc(N2CCCCC2)c2ccccc23)cc1 | inactive: 36.5%
81 | O=C(CCN1C(=O)[C@@H]2Cc3ccccc3CN2C1=O)N[C@H](C(=O)O)c1ccccc1 | inconclusive: -46%
82 | CCN(CC)C(=O)CSc1nc2c(sc(=S)n2-c2ccccc2)c(=O)n1-c1ccccc1OC | inconclusive: -51.2%
83 | CN(C)C(=O)CSc1nc(-c2ccccc2)nc2c1CCCC2 | inactive: -17.1%
84 | Cc1nc(S(=O)(=O)N(C)c2ccccc2)c(C#N)c(C)c1Cl | active: -96.7%
85 | CN(CC(=O)Nc1ccccc1Br)C(=O)CCSc1ccc(F)cc1 | inactive: -34.2%

Three of the compounds above, with tabs:
Row	SMILES	activity change, negative = inhibition
67	Cc1ccc(S(=O)(=O)C2(C(=O)Nc3ccc(C(C)C)cc3)CC2)cc1	inactive: 38.6% and inactive: 6.84%
69	COC1CCN(C(=O)c2cc(COc3ccc(-n4cncn4)cc3)on2)CC1	inactive: 3.63%
85	CN(CC(=O)Nc1ccccc1Br)C(=O)CCSc1ccc(F)cc1	inactive: -34.2%

A few values from the entries so far.
Under activity change, negative = inhibition, O=C(CCN1C(=O)[C@@H]2Cc3ccccc3CN2C1=O)N[C@H](C(=O)O)c1ccccc1 reads inconclusive: -46%
Under activity change, negative = inhibition, O=C(Cn1nc(-c2ccc(Cl)cc2)ccc1=O)NCCCN1CCN(Cc2ccccc2)CC1 reads inconclusive: -42.9%
Under activity change, negative = inhibition, Cc1ccc2nc(SCC(=O)NCc3ccc(F)cc3)[nH]c2c1 reads active: -64.6%
Under activity change, negative = inhibition, COc1ccc(CNc2nc(-c3ccc(Cl)cc3)nn2C(=O)c2ccccc2)cc1 reads inactive: 1.03%
